{
  "sequences": {"note": "Chains of the proteins cited; added tags and fusions are not shown. Lines headed by an entry give the natural chain unless they say otherwise; changes in a name come on top.", "UniProt P16257, whole entry, looked up": "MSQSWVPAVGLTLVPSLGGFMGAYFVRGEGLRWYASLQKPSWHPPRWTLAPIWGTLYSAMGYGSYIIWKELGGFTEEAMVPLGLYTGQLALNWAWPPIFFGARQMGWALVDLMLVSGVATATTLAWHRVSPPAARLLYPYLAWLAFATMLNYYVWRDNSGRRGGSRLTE", "UniProt P49884, whole entry, looked up": "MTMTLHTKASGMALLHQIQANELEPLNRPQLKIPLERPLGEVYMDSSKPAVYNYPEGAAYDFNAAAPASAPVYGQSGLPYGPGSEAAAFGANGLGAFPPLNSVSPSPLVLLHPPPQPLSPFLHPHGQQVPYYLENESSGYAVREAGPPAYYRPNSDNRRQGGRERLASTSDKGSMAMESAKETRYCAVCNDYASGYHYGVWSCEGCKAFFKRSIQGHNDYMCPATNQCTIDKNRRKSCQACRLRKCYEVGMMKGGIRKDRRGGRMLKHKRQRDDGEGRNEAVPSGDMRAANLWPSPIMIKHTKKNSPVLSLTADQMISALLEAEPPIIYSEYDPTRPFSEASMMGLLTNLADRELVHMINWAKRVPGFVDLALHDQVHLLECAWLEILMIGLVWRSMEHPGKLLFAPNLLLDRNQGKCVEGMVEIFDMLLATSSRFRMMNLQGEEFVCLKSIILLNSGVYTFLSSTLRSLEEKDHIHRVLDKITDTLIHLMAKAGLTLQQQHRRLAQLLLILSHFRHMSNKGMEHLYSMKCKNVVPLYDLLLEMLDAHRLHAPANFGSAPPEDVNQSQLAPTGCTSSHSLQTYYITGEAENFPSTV", "UniProt P37231": "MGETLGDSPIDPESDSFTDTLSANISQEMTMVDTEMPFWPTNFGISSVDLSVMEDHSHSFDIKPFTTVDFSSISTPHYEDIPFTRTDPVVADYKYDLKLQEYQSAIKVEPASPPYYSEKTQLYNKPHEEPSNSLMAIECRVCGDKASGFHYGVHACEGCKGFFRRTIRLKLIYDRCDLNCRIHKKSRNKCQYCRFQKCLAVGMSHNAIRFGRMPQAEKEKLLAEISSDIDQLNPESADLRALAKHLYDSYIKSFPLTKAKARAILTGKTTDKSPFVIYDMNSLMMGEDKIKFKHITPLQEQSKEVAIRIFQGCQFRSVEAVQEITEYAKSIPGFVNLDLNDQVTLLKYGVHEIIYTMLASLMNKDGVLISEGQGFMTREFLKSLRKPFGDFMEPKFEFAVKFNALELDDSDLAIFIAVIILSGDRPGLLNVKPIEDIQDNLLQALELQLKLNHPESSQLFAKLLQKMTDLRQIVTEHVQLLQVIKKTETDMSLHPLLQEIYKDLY", "UniProt P19793": "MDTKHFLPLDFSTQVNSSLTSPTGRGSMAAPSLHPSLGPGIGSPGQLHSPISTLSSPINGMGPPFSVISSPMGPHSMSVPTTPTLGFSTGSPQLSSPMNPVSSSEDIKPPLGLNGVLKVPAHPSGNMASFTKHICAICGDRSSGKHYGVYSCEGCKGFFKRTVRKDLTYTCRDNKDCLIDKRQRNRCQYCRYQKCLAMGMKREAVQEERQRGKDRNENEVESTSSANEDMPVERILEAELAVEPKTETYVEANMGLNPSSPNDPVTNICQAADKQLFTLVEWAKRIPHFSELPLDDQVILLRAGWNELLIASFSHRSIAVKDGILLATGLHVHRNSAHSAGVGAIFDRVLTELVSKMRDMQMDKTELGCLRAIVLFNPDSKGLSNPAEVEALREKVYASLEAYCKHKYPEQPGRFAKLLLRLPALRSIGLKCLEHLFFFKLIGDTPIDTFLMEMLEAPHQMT"},
  "source": "PubChem BioAssay (EPA / NIEHS)",
  "key": {"[1]": {"biological_target": "human c-Jun N-terminal Kinases (JNK2), MAPK9 (gene 5601) (UniProt P45984)", "experiment": "NVS_ENZ_hJNK2: NovaScreen (NVS) Enzymatic Assay for human c-Jun N-terminal Kinases (JNK2) (AID 2283171)", "in_short": "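Cell-free recombinant human JNK2 activity assay; fluorescent substrate and product separated by electrophoretic mobility shift, read 1 h after dosing. Primary duplicate screen at 25 uM; actives run in concentration-response up to 50 uM, relative to DMSO.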"}, "[2]": {"test_system": "rabbit Platelet Activating Factor Receptor (PAF), gene 100354046", "experiment": "NVS_GPCR_rabPAF: NovaScreen (NVS) G Protein-Coupled Receptor Assay for rabbit Platelet Activating Factor Receptor (PAF) (AID 2283287)", "in_short": "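Rabbit platelet membrane preparation; radioligand displacement read by filter-based scintillation counting 1 h after dosing, loss of signal versus DMSO. Primary screen in duplicate at 25 uM, actives followed up in concentration series.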"}, "[3]": {"biological_target": "Voltage-dependent N-type calcium channel subunit alpha-1B (Rattus norvegicus) (UniProt Q02294)", "experiment": "NVS_IC_rCaChN: NovaScreen (NVS) Ion Channel Assay for rat Calcium Channel, Type N (CaChN) (AID 2283317)"}, "[4]": {"biological_target": "rat Peripheral-type Benzodiazepine Receptor (PBR), Tspo (gene 24230) (UniProt P16257)", "experiment": "NVS_MP_rPBR: NovaScreen (NVS) Membrane Protein Assay for rat Peripheral-type Benzodiazepine Receptor (PBR) (AID 2283335)", "in_short": "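Radioligand displacement, rat kidney membrane prep, 1 h exposure, filter-based scintillation read; DMSO baseline, loss-of-signal scored. Primary screen at 25 uM in duplicate, actives followed up in concentration series.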"}, "NCBI gene 100848466": {"test_system": "NCBI gene 100848466", "experiment": "NVS_NR_bPR: NovaScreen (NVS) Nuclear Receptor Binding Assay for bovine Progextron Receptor (PR) (AID 2283343);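 also: actives lower bound radioligand signal below DMSO meaning displacement of the label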", "in_short": "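Bovine uterine membrane preparation, cell-free; radioligand competitive displacement measured by scintillation counting 18 hours after dosing. Loss of signal versus DMSO baseline indicates binding; primary HTS single concentration 25 uM in duplicate, actives followed in concentration series.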"}, "[5]": {"biological_target": "bovine Estrogen Receptor (ER), ESR1 (gene 407238) (UniProt P49884)", "experiment": "NVS_NR_bER: NovaScreen (NVS) Nuclear Receptor Binding Assay for bovine Estrogen Receptor (ER) (AID 2283345);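 also: actives lower the bound radioligand count which means they displace the ER ligand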", "in_short": "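Cell-free radioligand binding with bovine uterine membrane extracts, read 18 hours after dosing by scintillation counting. Loss of signal versus DMSO baseline indicates displacement. Primary screen run in duplicate at 25 uM, actives followed in concentration series.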"}, "[6]": {"biological_target": "Peroxisome proliferator-activated receptor gamma (Homo sapiens) (UniProt P37231)", "experiment": "NVS_NR_hPPARg: NovaScreen (NVS) Nuclear Receptor Binding Assay for human Peroxisome Proliferator-activated Receptor gamma (PPARg) (AID 2283370)", "in_short": "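Chemicals were tested first in duplicate at 25 uM, then in concentration series if active. Binding to cell-free PPARg protein was measured by fluorescence polarization after 2 h, with loss of signal scored against DMSO.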"}, "[7]": {"biological_target": "Retinoic acid receptor RXR-alpha (Homo sapiens) (UniProt P19793)", "experiment": "OT_NURR1_NURR1RXRa_0480: Odyssey Thera (OT) 8-hour HEK293T Protein Complementation Assay for Nurr1/retinoid X receptor (RXR) (AID 2283385)", "in_short": "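HEK293T cells expressing Nurr1 and RXRα fused to reporter fragments were dosed with compound for 8 hours. Complex formation was read as fluorescence intensity and analysed as gain of signal against DMSO as baseline.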"}, "[8]": {"experiment": "Tanguay_ZF_120hpf_JAW_legacy: (Legacy) Oregon State University Tanguay Lab 120 Hour Post-fertilization zebrafish Assay for Jaw Malformation (AID 2283638);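 also: active means more embryos with jaw malformation than DMSO controls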", "in_short": "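Steps: dechorionate 4 hpf embryos (pronase); plate 1/well at 6 hpf; add test chemical, 0.64% DMSO final; seal, cover, hold at 28C statically to 120 hpf; score jaw defect presence/absence microscopically. Dead embryos not scored.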"}, "[9]": {"experiment": "Tanguay_ZF_120hpf_TRUN_legacy: (Legacy) Oregon State University Tanguay Lab 120 Hour Post-fertilization zebrafish Assay for Truncated Body (AID 2283655)", "in_short": "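Truncated body is recorded as a binary endpoint at 120 hpf by brightfield imaging of wild-type 5D larvae. Exposure runs statically from 6 hpf at 28C with 0.64% DMSO; embryos dying earlier are not scored.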"}, "[10]": {"read-out": "ABC Transporter (ABCB1), ABCB1 (gene 5243)", "experiment": "CLD_ABCB1_6hr: CellzDirect (CLD) Gene Expression Assay for ABC Transporter (ABCB1) at 6 hours (AID 2283659);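 also: hits raise ABCB1 transcript above the DMSO vehicle baseline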", "in_short": "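Primary human hepatocytes (two donor preparations) dosed daily for two days with chemicals at multiple concentrations, 0.2% DMSO vehicle; harvested 6 h post-dose. ABCB1 mRNA induction quantified by qNPA chemiluminescence; gain-of-signal fitted versus DMSO.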"}, "[11]": {"read-out": "xenobiotic metabolism (CYP2C9), CYP2C9 (gene 1559)", "experiment": "CLD_CYP2C9_6hr: CellzDirect (CLD) Gene Expression Assay for xenobiotic metabolism (CYP2C9) at 6 hours (AID 2283664)", "in_short": "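Primary human hepatocytes dosed daily with test chemicals at multiple concentrations; harvested at 6 h. CYP2C9 mRNA induction measured by qNPA chemiluminescence. Gain of signal fitted against 0.2% DMSO vehicle; cytotoxicity annotated from phase-contrast morphology.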"}, "[12]": {"read-out": "alkyl and aryl transferase (GSTA2), GSTA2 (gene 2939)", "experiment": "CLD_GSTA2_6hr: CellzDirect (CLD) Gene Expression Assay for alkyl and aryl transferase (GSTA2) at 6 hours (AID 2283666)", "in_short": "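Primary human hepatocytes from two donor preparations were dosed daily with fresh compound at multiple concentrations, 0.2% DMSO vehicle. GSTA2 mRNA was measured at 6 hours by qNPA chemiluminescence; induction fitted relative to DMSO, with cytotoxicity flagged morphologically.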"}, "[13]": {"read-out": "organic anion transporter (SLCO1B1), SLCO1B1 (gene 10599)", "experiment": "CLD_SLCO1B1_6hr: CellzDirect (CLD) Gene Expression Assay for organic anion transporter (SLCO1B1) at 6 hours (AID 2283668);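 also: active means mRNA induction above DMSO baseline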", "in_short": "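Primary human hepatocytes dosed daily with test chemicals (multiple concentrations) in 0.2% DMSO vehicle; harvested at 6 h. SLCO1B1 mRNA quantified by qNPA chemiluminescence, fitted as gain-of-signal versus DMSO; cytotoxicity from phase-contrast morphology flagged alongside.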"}},
  "note": "The inconclusive results got no clear call from the source; some entries with a clear call stand among them for comparison. For some assays here: A potency beside an inconclusive call is a rough fit, not a confirmed value. Calls of active or inactive are those of the source. The calls were made as follows: active = hit-call score of the fitted dose curve at least 0.9, where 1 is the maximum; inconclusive = response in the unintended direction; inactive = score below 0.9.",
  "data": [
    {"smiles": "COP(=O)(OC)OC=C(Cl)Cl", "values": [
      {"measurement": "AC50", "setting": "[1]", "result": "inconclusive: 25 µM"},
      {"measurement": "outcome", "setting": "[2]", "result": "inactive"},
      {"measurement": "outcome", "setting": "[3]", "result": "inactive"},
      {"measurement": "AC50", "setting": "[4]", "result": "inconclusive: 25 µM"},
      {"measurement": "AC50", "setting": "NCBI gene 100848466", "result": "inconclusive: 25 µM"},
      {"measurement": "AC50", "setting": "[5]", "result": "inconclusive: 25 µM"},
      {"measurement": "AC50", "setting": "[6]", "result": "active: 6.97 µM"},
      {"measurement": "outcome", "setting": "[7]", "result": "inactive"},
      {"measurement": "AC50", "setting": "[8]", "result": "inconclusive: 44 µM"},
      {"measurement": "AC50", "setting": "[9]", "result": "inconclusive: 101 µM"},
      {"measurement": "outcome", "setting": "[10]", "result": "inactive"},
      {"measurement": "AC50", "setting": "[11]", "result": "inconclusive: 0.497 µM"},
      {"measurement": "AC50", "setting": "[12]", "result": "inconclusive: 36.9 µM"},
      {"measurement": "AC50", "setting": "[13]", "result": "inconclusive: 20 µM"}
    ]}
  ]
}
